Here are results for one molecule from PubChem BioAssay AID242 (DTP/NCI, 2004).

In this assay the test system is BDF1 mice, Lymphoma 8 ip, survival T/C. Briefly: NCI In Vivo Anticancer Drug Screen. Data for tumor model Lymphoma 8 (intraperitoneal) in B6D2F1 (BDF1) mice. The settings on record: T/C endpoint: survival time, mean or median, schedule: Q01DX010 (ip), vehicle: saline, higher T/C = longer survival. On the procedure:
The antitumor activity of compounds was measured in mice bearing transplantable tumors. Survival or tumor size were measured and the results are expressed as the measurement made in the treated group (T) divided by the measurement made in the vehicle treated control group (C). The tumor model used in this assay is Lymphoma 8 (intraperitoneal) in B6D2F1 (BDF1) mice

The list is a part of this screen's results and no random one: its compounds were picked by chemical class. Other doses and runs of a compound may be missing. T/C gives the treated animals as a percentage of the vehicle group. For survival time, this PubChem deposit counts one and a half times the control or more as active, and values a quarter to a half above the control carry no call in these data; other NCI protocols may use other cut-offs. Some T/C values are marked as having no survivor count here; that says nothing about deaths at the dose. Schedules are NCI's codes, read here as Q, the interval in days (D) or hours (H), X, the number of doses.

In the case of `CN(CCCl)CCCl`, the T/C is, setting by setting: (dose: 0.13 mg/kg/injection) 140 % of control [survivor count not shown]; (dose: 0.25 mg/kg/injection) 155 % of control [survivor count not shown]; (dose: 0.5 mg/kg/injection) 190 % of control [survivor count not shown].
